This assay has as its target Cripto mCFC mutant (H104G, W107G) (mouse). The assay can be described thus: activin crosslinking assays with co-expressed type II receptors.

Results are given in words; binding and its absence hold for the method and conditions named. Binding can be weak; no strength is given.

B1: activin-A (ligand, UniProt P08476 311-426, looked up)
chain: GLECDGKVNICCKKQFFVSFKDIGWNDWIIAPSGYHANYCEGECPSHIAGTSGSSLSFHSTVINHYRMRGHSPFANLKSCCVPTKLRPMSMLYYDDGQNIIKKDIQNMIVEECGCS
modifications: [125I] label in the crosslinking assays (site not stated)
As to B1, the binding result was “binds”.

(Values after US20110009319A1.)
